# System: RAW264.7 cells
# Test: Epifluorescence microscopy of CFZ-incubated RAW264.7 cells (colocalization of fluorescent spots)
# Format: cell-based
# Settings: RAW264.7 cells incubated with CFZ
compound,measurement,value
"CC(C)N=c1cc2n(-c3ccc(Cl)cc3)c3ccccc3nc-2cc1Nc1ccc(Cl)cc1 [CFZ, 3-(p-chloroanilino)-10-(p-chlorophenyl)-2, 10-dihydro-2-isopropyliminophenazine]","Pearson's Colocalization Coefficient, far-red with green fluorescent spots",0.30±0.29
same,"Pearson's Colocalization Coefficient, red with far-red fluorescent spots",0.61±0.20
same,"Pearson's Colocalization Coefficient, red with green fluorescent spots",0.60±0.22

# Source: patent US20190262453A1, “DESIGN AND COMPOSITION OF CELL-STABILIZED PHARMACEUTICAL FORMULATIONS” (THE REGENTS OF THE UNIVERSITY OF MICHIGAN, priority 2016, published 2019)
